According to PMC6796953:
No constants are given. Whether binding was seen depends on the method and setting. In cells and extracts the contact can be indirect. Some binding calls cover weakened binding; strength is not graded here. Tags and fused reporters may be left off the sequences shown.

Target: T1, GFP-mRbm14 (mouse) (UniProt Q8C2Q3)
T1 sequence: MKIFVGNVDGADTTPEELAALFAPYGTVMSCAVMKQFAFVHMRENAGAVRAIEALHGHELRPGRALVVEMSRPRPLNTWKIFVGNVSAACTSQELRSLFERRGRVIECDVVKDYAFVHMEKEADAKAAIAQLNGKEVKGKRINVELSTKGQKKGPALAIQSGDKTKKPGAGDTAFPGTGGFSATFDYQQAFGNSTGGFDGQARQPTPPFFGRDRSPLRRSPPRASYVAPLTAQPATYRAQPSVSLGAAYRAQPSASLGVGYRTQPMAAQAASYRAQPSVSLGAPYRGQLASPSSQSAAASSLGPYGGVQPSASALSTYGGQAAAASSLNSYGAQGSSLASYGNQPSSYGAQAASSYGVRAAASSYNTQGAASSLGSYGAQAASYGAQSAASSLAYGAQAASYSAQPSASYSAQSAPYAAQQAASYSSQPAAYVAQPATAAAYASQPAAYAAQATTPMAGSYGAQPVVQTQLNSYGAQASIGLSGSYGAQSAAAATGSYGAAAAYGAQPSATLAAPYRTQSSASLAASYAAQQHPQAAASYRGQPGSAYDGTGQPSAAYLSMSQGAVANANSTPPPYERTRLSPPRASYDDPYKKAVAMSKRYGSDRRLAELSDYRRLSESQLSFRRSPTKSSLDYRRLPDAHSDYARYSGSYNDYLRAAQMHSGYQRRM
Experiment: co-IP; GFP, GFP-mRbm14 or GFP-zRbm14b expressed in HeLa cells, immunoprecipitated with anti-GFP resin; immunoblot for endogenous hnRNP proteins

B1: hnRNPL (human) (protein, UniProt P14866 1-589)
chain: MSRRLLPRAEKRRRRLEQRQQPDEQRRRSGAMVKMAAAGGGGGGGRYYGGGSEGGRAPKRLKTDNAGDQHGGGGGGGGGAGAAGGGGGGENYDDPHKTPASPVVHIRGLIDGVVEADLVEALQEFGPISYVVVMPKKRQALVEFEDVLGACNAVNYAADNQIYIAGHPAFVNYSTSQKISRPGDSDDSRSVNSVLLFTILNPIYSITTDVLYTICNPCGPVQRIVIFRKNGVQAMVEFDSVQSAQRAKASLNGADIYSGCCTLKIEYAKPTRLNVFKNDQDTWDYTNPNLSGQGDPGSNPNKRQRQPPLLGDHPAEYGGPHGGYHSHYHDEGYGPPPPHYEGRRMGPPVGGHRRGPSRYGPQYGHPPPPPPPPEYGPHADSPVLMVYGLDQSKMNCDRVFNVFCLYGNVEKVKFMKSKPGAAMVEMADGYAVDRAITHLNNNFMFGQKLNVCVSKQPAIMPGQSYGLEDGSCSYKDFSESRNNRFSTPEQAAKNRIQHPSNVLHFFNAPLEVTEENFFEICDELGVKRPSSVKVFSGKSERSSSGLLEWESKSDALETLGFLNHYQMKNPNGPYPYTLKLCFSTAQHAS
binding: binds
